Our source for the binding result and Kd values is PMC11998062.

Construct, isoform or probe ends are uncertain for at least one entry. For some assays here: A weaker result is weaker than the reference pair of the same experiment. For some assays here: At least one verdict was read from the data and is not stated in words by the source.

The subject of series [1] is MaxS2pS11pK31AcK57Ac S2pS,S11pS,K31Ac,K57Ac,M1Nle,M65Nle,M148Nle. As to the kind of experiment: EMSA. As to conditions: 1 uM DNA, 0-8 uM protein, 1 mM MgCl2, very minor binding at elevated concentrations; EMSA: 10 mM MES pH 6.0, 150 mM KCl, 1 mM MgCl2, 10% glycerol, room temperature 30 min, 8% TBE gel; residues 1-151; protein details: C-terminal extra K. A general note: In EMSA bound probe runs differently from free probe, usually more slowly.

Series [2] concerns MaxK31AcK57Ac K31Ac,K57Ac,M1Nle,M65Nle,M148Nle. As to the kind of experiment: EMSA. As to conditions: 1 uM DNA, 0-8 uM protein, 1 mM MgCl2, inhibition less pronounced than P2; EMSA: 10 mM MES pH 6.0, 150 mM KCl, 1 mM MgCl2, 10% glycerol, room temperature 30 min, 8% TBE gel; residues 1-151; protein details: C-terminal extra K.
The test system of series [3] is MaxS2pS11p S2pS,S11pS,M1Nle,M65Nle,M148Nle. As to the kind of experiment: EMSA. To be noted: 1 uM DNA, 0-8 uM protein, 1 mM MgCl2, inhibition less pronounced than P2; EMSA: 10 mM MES pH 6.0, 150 mM KCl, 1 mM MgCl2, 10% glycerol, room temperature 30 min, 8% TBE gel; residues 1-151; protein details: C-terminal extra K.
In series [4] the test system is MaxS2pS11pK31AcK57Ac S2pS,S11pS,K31Ac,K57Ac,M1Nle,M65Nle,M148Nle. As to the kind of experiment: CD. As to conditions: 5 uM DNA and protein 1:1, no structural stabilization with DNA; CD: same buffer; residues 1-151; protein details: C-terminal extra K.
Series [5] has as its system Max-WT M1Nle,M65Nle,M148Nle. Kind of series: BLI. To be noted: 0.1% BSA, 0.02% Tween-20, 1x PBS, 1:1 global fit, BLI: 1x PBS, protein details: C-terminal extra K.

“CCGGCTGACACGTGGTATTAAT (double strand) [E-box DNA probe]”: the binding result in series [1], in series [2], in series [3] and in series [4] was “binds more weakly” in each case.

As to “CCGGCTGACACGTGGTATTAAT (double strand) [biotinylated E-box DNA probe]”, the dissociation constant Kd – broadly, the concentration at which binding is half-saturated – in series [5] is 15.3 nM.
